These results are taken from PubChem BioAssay AID1347426 (Functional Genomics Laboratory (NCATS/FGL), 2020).

About 1,400 (4.5%) of roughly 31,000 sequences were called active.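 Rule for the calls: active = median seed-adjusted z-score above 1 or below -1; inactive = the rest.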 Some of the results follow.

The assay can be described thus: Novel Modifiers of Survival Motor Neuron (SMN) Protein: Gene Identification via Genome-wide siRNA Screen.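 Note: luminescence tracks full-length SMN protein made from the SMN2 reporter.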 The following applies: HEK293T SMN2-luciferase reporter, siRNA knockdown, 72 h; actives lie on both sides. From the text:
Spinal muscular atrophy (SMA) is the most common neuromuscular autosomal recessive disorder and one of the leading genetic causes of infant death. SMA results from mutations inducing loss of function or deletion in the survival of motor neuron-1 gene (SMN1), leading to deficiency of the survival motor neuron (SMN) protein. Although a second nearly identical gene, SMN2, is retained in humans, its expression primarily produces an aberrantly spliced isoform that is largely unstable and quickly degraded. We performed a genome-wide RNAi screen using a cell-based reporter assay to identify genes and pathways that modulate SMN protein stability. The screen identified over 200 genes that led to the greatest increase or decrease in luciferase expression.
Using HEK293T cells stably expressing a luciferase reporter that combines the promoter and splicing based cassettes in tandem with the major portion of the native SMN2 cDNA with luciferase, we performed a genome-wide RNAi screen to identify modulators of SMN protein levels. Luciferase is expressed when full-length SMN protein is generated with luminescence signal proportional to SMN protein levels. Our luciferase-based reporter assay was used to screen Ambion Silencer Select Human Druggable Genome siRNA library (10418 genes, 3 unique siRNAs per gene) using lipid-based reverse transfection.
Briefly, 1 pmol of each siRNA was spotted to a well of a 384-well plate (Corning, Corning, NY) and 20 microL of serum-free DMEM containing […] of Lipofectamine RNAiMax (Life Technologies, Carlsbad, CA) was then added to each well. Transfected cells were maintained at 37 degrees C in 5% CO2 for 72 hours, 20 microL of ONE-Glo Reagent (Promega) was added to wells for luciferase quantification. Raw luminescence reads were normalized to Ambion(R) Silencer(R) Negative Control #2 siRNA, then log10 transformed. A robust statistical measure of median absolute deviation (MAD) to standardize siRNA activities from each screen. Common Seed Analysis was used to help prioritize clean hits as opposed to those appearing to arise from seed based off-target effects. Candidate modulators were defined as the genes having a MAD score greater than 1.0 or less than -1.0.
For orientation: Reporter assays use an easily measured gene product as a stand-in for the process of interest.
For GAAAGUUCAUAAUCGUGAUTT against ZFP28, the median seed-adjusted z-score is inactive: 0.275.
Turning to GAAUUGGGUCGAUCUGUGATT against DNAJC1, the median seed-adjusted z-score was inactive: 0.134.
Next, CCACUUACUUCUUACACUUTT against XRCC2: inactive: 0.
For GGAGAUUUUGAGUCCUACATT against CAMK2A, the median seed-adjusted z-score is inactive: 0.396.
As for CCGUGGACCUGAUCAUCAATT against FASN, the median seed-adjusted z-score was inactive: 0.282.
For GAGCCGUACUAUGACCUGATT against SSTR2, the median seed-adjusted z-score is inactive: -0.162.
Next, GCCGCAUCCAUUACACUGATT against CACNA1E: inactive: 0.285; CUUUUACAGCUGACGGAAATT against GZMA: inactive: -0.234; GGGUCAACCUCUUUACGGATT against EIF3B: inactive: -0.71.
Next, GAUCUACUCGGAUACCUUATT against INPP5A: inactive: -0.00941; CGAACUCUACCAAGCCUAUTT against EMILIN2: inactive: 0.726.
Take AGCACAACUUGUUGAGAUATT against SAP30: the median seed-adjusted z-score was inactive: -0.618.
As to GAGUCAAACCAUGGAAUUATT against GYG1, the median seed-adjusted z-score was inactive: 0.119.
Next, GCGAAUUGAUGACAUCGUUTT against CCT3: inactive: -0.416.
In the case of CCUUGUCUGAACUUCCCAATT against ZNF444, the median seed-adjusted z-score was inactive: -0.218.
Next, CCAUGAUCCCUGAUGCAGATT against HARS: inactive: -0.722; GGAUUUUGGAAUCCAAUGATT against ADAM18: inactive: -0.913.
Next, GUAUUUCAACAGAAAUGAUTT against CENTA1: inactive: -0.555; CCGCCCUUCUGACAACUCUTT against NCR2: inactive: -0.0526; AGUUCAUGCAAGAUCCAAUTT against BAT1: active: -1.49.
Next, CCAUCGAUAUUCAGACAGATT against CA14: inactive: -0.308.
On to CGAGUAGACAAGAUUUUCATT against VSNL1, for which the median seed-adjusted z-score is inactive: 0.0569.
Regarding CCAUGACAACUUUCACUGATT against AGFG2, the median seed-adjusted z-score was inactive: -0.289.
Next, GGACGUAGGAGGACUGUCATT against SYT5: inactive: 0.704; GAGUUCCUCUGGUCACUAUTT against TTC18: active: -1.15; GUAUAUCCGUGUAUCCUAUTT against TRPM1: inactive: -0.527.
Next, GGCAAGCUGUUUCGACCAATT against NCF2: inactive: -0.201; CCGGCACCAUUCUACCCAATT against ELA2B: inactive: -0.154.
On to CAAUCGGCCUUUUACCAAUTT against KIF22, for which the median seed-adjusted z-score is inactive: 0.283.
Next, CCAACAGACAGGAACCUAUTT against PYCRL: inactive: 0.498.
For the sequence GCAUGCCUGUGUGACAUCATT against NGFR, the median seed-adjusted z-score is inactive: -0.0846.
Next, GGAUUACGCACAAACGGCATT against SLC16A12: inactive: 0.0219; CAAUAGAGGUUAUGCGUUUTT against SYNCRIP: inactive: -0.192.
Next, GUAUAACCAGAGACUCUUUTT against ARHGAP4: inactive: 0.784; ACUGCUAAGUUAUCCACUATT against UBE2E3: inactive: -0.0585.
Next, GUACGUUGUAUGUUAAACATT against SLC12A2: inactive: -0.4; CUUCCAAUCUGGAUUCAAUTT against IL6: inactive: -0.436.
GGAGGAAACUUCAACUUGUTT against PHF20L1: the median seed-adjusted z-score is inactive: 0.
Next, GAAGAGUUGUCGUCUAUAATT against TRIB2: inactive: 0; CGAGACUCAUCUACCUGAATT against LRRC32: inactive: 0.0464.
In the case of GGAAAAAGAUCAUAAUAGUTT against SLU7, the median seed-adjusted z-score was inactive: -0.97.
Turning to GGAUAGUUUUGUAAAAUCUTT against NFIB, the median seed-adjusted z-score was inactive: 0.1.
As to GCCUAGACAUCAUCACCAATT against TRIT1, the median seed-adjusted z-score was inactive: 0.794.
Regarding GUAUUGGAAUUACUAUUGATT against ELP3, the median seed-adjusted z-score was inactive: 0.321.
Next, GCCUAUUCAACAACGGAUATT against PDE5A: inactive: 0.
Next, UAAUGUCCUGGUUCAGAAATT against SFXN5: inactive: 0; CCAACCGAAUGAUUGCAGATT against KIF6: inactive: -0.0396.
As to GAUUAGAUUGGGUAAAGGATT against APEX1, the median seed-adjusted z-score was inactive: -0.312.
Next, GCAAUAACCGUCUAAUAAATT against PHGDH: inactive: 0.108; CCCUCGUCAUCAUCAGCAUTT against CLDN4: inactive: -0.0241.
Next, GAGUCUAGAUCUUCAGAUATT against ZNF280D: inactive: 0.374; AAUUCGUUUUGACCACAUATT against XBP1: inactive: 0.387; CAGUGCAUCUAGUGGAUUATT against GABRR3: inactive: 0.368.
CUUCCCAGGUGGAGCCAAATT against UNQ2541: the median seed-adjusted z-score is inactive: -0.954.
As to GCGUUGGAGUGCUACAACATT against PRKDC, the median seed-adjusted z-score is inactive: -0.485.
On to GCGUAGCUCAAGGAUCAAATT against MAP3K1, for which the median seed-adjusted z-score is inactive: -0.217.
Regarding AGAUCCUGCAGGUCAAGUATT against CACNA2D2, the median seed-adjusted z-score was inactive: -0.702.
Regarding AGACCAAAGUCCAUCGGAATT against SYT2, the median seed-adjusted z-score is inactive: 0.243.
Next, CCGCGGAUAUUGACAGCUATT against MYH7B: inactive: -0.0322.
Next, GCAAAUCAUGAUUGACAUATT against IFNGR1: inactive: -0.279.
With GGUUCAAUCAACUUAGAAATT against MS4A12, the median seed-adjusted z-score is inactive: -0.881.
Turning to UAUCAAUUCCGACAUCGAATT against WNT5A, the median seed-adjusted z-score was inactive: 0.651.
Next, GGUGGAUGCUCAAUCCAGATT against FOXO1: inactive: 0.0591; UGAUGAACUCGGAAAUGCATT against PPAPDC1A: inactive: 0.634.
For CUAUGGUCUCUACCGAAAATT against HDAC1, the median seed-adjusted z-score is inactive: -0.61.
In the case of GGUUAUCAAUGACGAGCAATT against EP400, the median seed-adjusted z-score was active: 1.83.
For GGCUACAUCUAGAAGGCAATT against LRG1, the median seed-adjusted z-score is inactive: 0.668.
Next, GCUUUUGAAAUGACAUUAATT against ECHS1: inactive: 0.0273; GGAGUCAUAAUGAACAUAATT against SLC13A5: inactive: 0.
